This is an account of results in publication PMC7819943, “Rice protein-binding microarrays: a tool to detect cis-acting elements near promoter regions in rice”.

Chains of the proteins cited; added tags and fusions are not shown.
UniProt Q0JBA9, entry or part of it: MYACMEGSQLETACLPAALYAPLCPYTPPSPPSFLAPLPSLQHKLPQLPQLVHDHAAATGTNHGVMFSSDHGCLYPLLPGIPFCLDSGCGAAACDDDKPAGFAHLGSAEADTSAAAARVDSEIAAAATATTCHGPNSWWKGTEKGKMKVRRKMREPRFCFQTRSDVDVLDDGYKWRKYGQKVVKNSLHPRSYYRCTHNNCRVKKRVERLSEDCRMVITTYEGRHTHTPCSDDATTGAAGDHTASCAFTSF

The list shows a part of the results.

In the assay the target is OsWRKY34 (Oryza sativa, UniProt Q0JBA9 1-250). Briefly: protein-binding microarray (RPBM); PBS, 2% BSA, 51.3 ng/ul salmon testes DNA, 50 uM zinc acetate, 200 nM TF, 25 C, 1 h; high values mean tight binding. The following applies: protein: recombinant; tags: N-terminal polyhistidine and DsRed monomer fusion (pET32a); label: CyDye5-dUTP incorporated in the synthesized complementary strand; 3' TTTTT single-stranded linker to array surface; dsDNA, one strand shown. In a few lines:
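Transcription factors were each fused at the N-terminus to a polyhistidine tag plus DsRed and expressed in E. coli BL21-CodonPlus before Ni–NTA purification. Binding to a double-stranded custom Agilent array was carried out with 200 nM protein at 25 °C for 1 h in PBS, 2% BSA, salmon testes DNA and 50 µM zinc acetate. The binding signal is per-feature fluorescence intensity, in arbitrary units, on an Axon 4000B scanner.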
Turning to “TCTCTTCAAGGGACAAGGGTTTATGGGTGGGTGAACAGGTCGGAGTCACCTAGTGCAG”, the binding signal was 13200 fluorescence intensity (a.u.).
Take “AATCCGGACCGTCCATCTTCTATCCTAATCCGTTCTGTCGCGGAGTCACCTAGTGCAG”: the binding signal was 9160 fluorescence intensity (a.u.).
On to “AAATATGATCTTGTACCATCGTTTTAAACTAGTACATCGTCGGAGTCACCTAGTGCAG”, for which the binding signal was 9060 fluorescence intensity (a.u.).
As for “ATACTTTAATAAAATCATATATTTGTTAACACTTTTATATCGGAGTCACCTAGTGCAG”, the binding signal is 8440 fluorescence intensity (a.u.).
For the sequence “CTCTCCGGGATGTCCGGTTTCGCCCTGTATTGTTGGCGGGCGGAGTCACCTAGTGCAG”, the binding signal is 8220 fluorescence intensity (a.u.).
“CAACCTACTTCTATTAAAAGTTTTACAAGTTACACCCTTACGGAGTCACCTAGTGCAG”: the binding signal was 8140 fluorescence intensity (a.u.).
The figure for “TCTGTATGTTACTTGTTTACGGTCTCATGTCCAGCTGTTTCGGAGTCACCTAGTGCAG” is 13000 fluorescence intensity (a.u.).
“ACCACCACCACCATCGCTTTCTTCCTCCTCGCCTTCTGCTCGGAGTCACCTAGTGCAG”: the binding signal was 8870 fluorescence intensity (a.u.).
On to “GCAACACTGGATCGCACTGCCGCCGCCGCCGACGCCTCAACGGAGTCACCTAGTGCAG”, for which the binding signal was 9180 fluorescence intensity (a.u.).
As for “TGCTGTCCGCCTGCCTGCCTACTTTCTCCACTTTTTTCTCCGGAGTCACCTAGTGCAG”, the binding signal was 10800 fluorescence intensity (a.u.).
Consider “GTCCCAGCCGCATGTCACTGCCACTCTGCACTCTTCTCTCCGGAGTCACCTAGTGCAG”, for which the binding signal was 14200 fluorescence intensity (a.u.).
Then “CCGTCACATCATTCTAATTTTAACCAAACTTCTAATTTTACGGAGTCACCTAGTGCAG”, with 8280 fluorescence intensity (a.u.).
As to “TCAATCGACCATTCCTATGTTTTTCCTGTGTTTTGTAATCCGGAGTCACCTAGTGCAG”, the binding signal is 8890 fluorescence intensity (a.u.).
In the case of “TTCGCCTCTCATCTACCCCGTCGCTCTCACCGTCGCGTTACGGAGTCACCTAGTGCAG”, the binding signal is 11000 fluorescence intensity (a.u.).
As to “GTCAATGTGCACAATATTTCATTTGGTCCTCACCTCAGCCCGGAGTCACCTAGTGCAG”, the binding signal is 8800 fluorescence intensity (a.u.).
For the sequence “ATCATCAGTCTGAACTTGACTTGCAACTACCCTGTGTCGTCGGAGTCACCTAGTGCAG”, the binding signal was 10400 fluorescence intensity (a.u.).
On to “TGGTCCCACCTGTCATACACACATTACGTCTTAGAGTCCGCGGAGTCACCTAGTGCAG”, for which the binding signal was 8260 fluorescence intensity (a.u.).
Take “TATATACCCGTTTCAAATTTAAATTTGAATTATATCTGATCGGAGTCACCTAGTGCAG”: the binding signal was 8690 fluorescence intensity (a.u.).
For “ATGATGGGATGTGGAAACTGGAAAGTTGTTTTTATCGAAACGGAGTCACCTAGTGCAG”, the binding signal was 8140 fluorescence intensity (a.u.).
With “ATTTTCTTACTTGTTACCTGAATAAATTACTTCCCCTATGCGGAGTCACCTAGTGCAG”, the binding signal is 8680 fluorescence intensity (a.u.).
With “GCCAACCAACCTGTCTTCCTTGGACTCGGACCTCTCGTTTCGGAGTCACCTAGTGCAG”, the binding signal is 8080 fluorescence intensity (a.u.).
In the case of “TCGTCGTCGTCGGAATCCCTGGATCAGTTTTCTAGCCTCACGGAGTCACCTAGTGCAG”, the binding signal was 8260 fluorescence intensity (a.u.).
In the case of “ATGAGCTTTTCTAACCATTTATTCTATTGCTTCTAATTTTCGGAGTCACCTAGTGCAG”, the binding signal is 10400 fluorescence intensity (a.u.).
As to “GCTCACTGAATTTTTTGCTATAAATACACCCCGTCTTTTCCGGAGTCACCTAGTGCAG”, the binding signal was 8340 fluorescence intensity (a.u.).
As to “TCGACCGATACTTCGCCGTCGTCGCCGTATATGTCATGTCCGGAGTCACCTAGTGCAG”, the binding signal is 8570 fluorescence intensity (a.u.).
“CATGGACAATTTTTACCGAATATATTCTCGGTTGCTTACTCGGAGTCACCTAGTGCAG”: the binding signal is 8220 fluorescence intensity (a.u.).
Take “GTCTGCACATCTGAAAGCTTTCTCCTTCACAGACTGAAGACGGAGTCACCTAGTGCAG”: the binding signal is 9110 fluorescence intensity (a.u.).
Turning to “ACACATGCTTATATGCTCTCTCCGTTCCATAATAAGTTTACGGAGTCACCTAGTGCAG”, the binding signal is 10400 fluorescence intensity (a.u.).
In the case of “ATAGCACTTTACTCGTGACTTATGTTTTCAATTTTTTTTACGGAGTCACCTAGTGCAG”, the binding signal is 11300 fluorescence intensity (a.u.).
With “AGGCTTTAACGTGATTGGGCAGGGGAAGATAATTAATAGACGGAGTCACCTAGTGCAG”, the binding signal was 9190 fluorescence intensity (a.u.).
Then “ACGGGTTGAGGGAGTCTATCTTGGCGTGATGGGAATTTTTCGGAGTCACCTAGTGCAG”, with 11100 fluorescence intensity (a.u.); and “GCTGGGAGTTAGAACGGTGATCCATCTAGATGTAATGGTCCGGAGTCACCTAGTGCAG”, with 8740 fluorescence intensity (a.u.).
Regarding “GGTCTCTCCAGTACCCTACTCTGCCCTTGTTCTTTTCTTCCGGAGTCACCTAGTGCAG”, the binding signal is 11000 fluorescence intensity (a.u.).
Consider “TTGAGAGGTCCACACCACACGGCGGCCGCACCCGATCACACGGAGTCACCTAGTGCAG”, for which the binding signal is 8920 fluorescence intensity (a.u.).
Consider “ATAGTTGTTCTAGCTAGTAGTGGCATCTCGTATATGCCAACGGAGTCACCTAGTGCAG”, for which the binding signal was 10500 fluorescence intensity (a.u.).
Then “AGTGTTATTTTTATTCTCTCCATCCTGCCGTCTGCACTATCGGAGTCACCTAGTGCAG”, with 10800 fluorescence intensity (a.u.).
Take “GTATTTTCAGTTCCCTCCGTTTTAGGTTACAAGTTGTCTTCGGAGTCACCTAGTGCAG”: the binding signal is 9020 fluorescence intensity (a.u.).
As to “CGTTCCAGCCCAACCCGGCCCCGCCCTGCCCCGTTGCCATCGGAGTCACCTAGTGCAG”, the binding signal was 9370 fluorescence intensity (a.u.).
As for “CTGTACCCGTTTGGCCGTTTCCCAAAAGATGCCGCTATTGCGGAGTCACCTAGTGCAG”, the binding signal was 11700 fluorescence intensity (a.u.).
“TGTATCCTTCCACCTTTTTATAATATTTAACATACATATTCGGAGTCACCTAGTGCAG”: the binding signal was 8240 fluorescence intensity (a.u.).
The figure for “TCAGTCACCTGCCCTGCATTCCTTGGCAAGATACATCGTCCGGAGTCACCTAGTGCAG” is 9300 fluorescence intensity (a.u.).
Consider “ATTCCTTGCATCCTCCTCGTTCCGTTTTTGTGGTTTTCGACGGAGTCACCTAGTGCAG”, for which the binding signal was 10400 fluorescence intensity (a.u.).
Consider “GACCAGTCAACACTCGCCAGCGCAAATCCTTTTCGAATCCCGGAGTCACCTAGTGCAG”, for which the binding signal was 8040 fluorescence intensity (a.u.).
Turning to “GTTTTGCGCCGCCCGCACTGCCAGCCGCTGCCACGCTGCTCGGAGTCACCTAGTGCAG”, the binding signal was 8590 fluorescence intensity (a.u.).
For the sequence “AGCTTTCACCTCATTAAGACCGGTATCTGTTGAGACTTGACGGAGTCACCTAGTGCAG”, the binding signal was 8860 fluorescence intensity (a.u.).
Then “GGGCCTGGGCTGGCCCGTTATTTTTTCTGTTTGTGTCTTTCGGAGTCACCTAGTGCAG”, with 8880 fluorescence intensity (a.u.).
Take “TTTGTCGTGTTGACCACAGCCTAATCCTCCTCGGATGTCTCGGAGTCACCTAGTGCAG”: the binding signal was 10000 fluorescence intensity (a.u.).
Consider “CAACCGGCAACCACCAACACCTTCACCTTCCGAATCCTGACGGAGTCACCTAGTGCAG”, for which the binding signal is 8520 fluorescence intensity (a.u.).
Then “CTAACCCTATTTCTTCTCCTCACCTCCCCTTCCCATCCCACGGAGTCACCTAGTGCAG”, with 8200 fluorescence intensity (a.u.).
Regarding “CTCGCCGCTCGTCACTCGGCTCTCGCATCAGGGGCATACGCGGAGTCACCTAGTGCAG”, the binding signal was 9040 fluorescence intensity (a.u.).
Consider “TCTCTGTTCGCTTTCGTACCTGCATTTCACTTTCTTTCTACGGAGTCACCTAGTGCAG”, for which the binding signal was 13900 fluorescence intensity (a.u.).
Regarding “TCCATTTCACACTAAGTCGTTTCGATTTTTTTTATAGTCACGGAGTCACCTAGTGCAG”, the binding signal was 8740 fluorescence intensity (a.u.).
Take “ATTTTTCTATTTCAGGGATGGGGATGTGCTTATCGTTCTCCGGAGTCACCTAGTGCAG”: the binding signal was 8130 fluorescence intensity (a.u.).
With “GAGAGGCTGACGGGTAGGGTCCATACTTTTTTTCATACTGCGGAGTCACCTAGTGCAG”, the binding signal is 8140 fluorescence intensity (a.u.).
